In paper doi:10.1101/2025.05.13.653700:
These are yes or no findings as the source states them, for the method shown. In cells and extracts the contact can be indirect. Here binding means that the protein was enriched with, or labelled near, the bait; the list need not be complete. A no says only that the protein was not detected with the bait.

Sequences of proteins named here, by UniProt entry; tags and fusion partners are left off.
UniProt Q9C0F3: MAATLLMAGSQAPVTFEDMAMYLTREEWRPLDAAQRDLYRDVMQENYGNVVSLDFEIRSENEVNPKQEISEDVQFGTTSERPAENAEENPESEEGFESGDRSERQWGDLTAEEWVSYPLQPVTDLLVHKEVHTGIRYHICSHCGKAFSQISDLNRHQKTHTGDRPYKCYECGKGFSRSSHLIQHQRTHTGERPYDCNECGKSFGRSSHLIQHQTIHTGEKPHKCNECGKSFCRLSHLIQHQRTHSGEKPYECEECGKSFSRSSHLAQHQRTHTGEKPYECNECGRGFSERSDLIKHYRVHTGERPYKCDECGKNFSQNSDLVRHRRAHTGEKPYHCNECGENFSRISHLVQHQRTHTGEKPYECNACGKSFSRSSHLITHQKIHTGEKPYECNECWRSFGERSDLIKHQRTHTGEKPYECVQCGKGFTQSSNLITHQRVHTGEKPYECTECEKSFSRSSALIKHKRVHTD
UniProt Q86U86: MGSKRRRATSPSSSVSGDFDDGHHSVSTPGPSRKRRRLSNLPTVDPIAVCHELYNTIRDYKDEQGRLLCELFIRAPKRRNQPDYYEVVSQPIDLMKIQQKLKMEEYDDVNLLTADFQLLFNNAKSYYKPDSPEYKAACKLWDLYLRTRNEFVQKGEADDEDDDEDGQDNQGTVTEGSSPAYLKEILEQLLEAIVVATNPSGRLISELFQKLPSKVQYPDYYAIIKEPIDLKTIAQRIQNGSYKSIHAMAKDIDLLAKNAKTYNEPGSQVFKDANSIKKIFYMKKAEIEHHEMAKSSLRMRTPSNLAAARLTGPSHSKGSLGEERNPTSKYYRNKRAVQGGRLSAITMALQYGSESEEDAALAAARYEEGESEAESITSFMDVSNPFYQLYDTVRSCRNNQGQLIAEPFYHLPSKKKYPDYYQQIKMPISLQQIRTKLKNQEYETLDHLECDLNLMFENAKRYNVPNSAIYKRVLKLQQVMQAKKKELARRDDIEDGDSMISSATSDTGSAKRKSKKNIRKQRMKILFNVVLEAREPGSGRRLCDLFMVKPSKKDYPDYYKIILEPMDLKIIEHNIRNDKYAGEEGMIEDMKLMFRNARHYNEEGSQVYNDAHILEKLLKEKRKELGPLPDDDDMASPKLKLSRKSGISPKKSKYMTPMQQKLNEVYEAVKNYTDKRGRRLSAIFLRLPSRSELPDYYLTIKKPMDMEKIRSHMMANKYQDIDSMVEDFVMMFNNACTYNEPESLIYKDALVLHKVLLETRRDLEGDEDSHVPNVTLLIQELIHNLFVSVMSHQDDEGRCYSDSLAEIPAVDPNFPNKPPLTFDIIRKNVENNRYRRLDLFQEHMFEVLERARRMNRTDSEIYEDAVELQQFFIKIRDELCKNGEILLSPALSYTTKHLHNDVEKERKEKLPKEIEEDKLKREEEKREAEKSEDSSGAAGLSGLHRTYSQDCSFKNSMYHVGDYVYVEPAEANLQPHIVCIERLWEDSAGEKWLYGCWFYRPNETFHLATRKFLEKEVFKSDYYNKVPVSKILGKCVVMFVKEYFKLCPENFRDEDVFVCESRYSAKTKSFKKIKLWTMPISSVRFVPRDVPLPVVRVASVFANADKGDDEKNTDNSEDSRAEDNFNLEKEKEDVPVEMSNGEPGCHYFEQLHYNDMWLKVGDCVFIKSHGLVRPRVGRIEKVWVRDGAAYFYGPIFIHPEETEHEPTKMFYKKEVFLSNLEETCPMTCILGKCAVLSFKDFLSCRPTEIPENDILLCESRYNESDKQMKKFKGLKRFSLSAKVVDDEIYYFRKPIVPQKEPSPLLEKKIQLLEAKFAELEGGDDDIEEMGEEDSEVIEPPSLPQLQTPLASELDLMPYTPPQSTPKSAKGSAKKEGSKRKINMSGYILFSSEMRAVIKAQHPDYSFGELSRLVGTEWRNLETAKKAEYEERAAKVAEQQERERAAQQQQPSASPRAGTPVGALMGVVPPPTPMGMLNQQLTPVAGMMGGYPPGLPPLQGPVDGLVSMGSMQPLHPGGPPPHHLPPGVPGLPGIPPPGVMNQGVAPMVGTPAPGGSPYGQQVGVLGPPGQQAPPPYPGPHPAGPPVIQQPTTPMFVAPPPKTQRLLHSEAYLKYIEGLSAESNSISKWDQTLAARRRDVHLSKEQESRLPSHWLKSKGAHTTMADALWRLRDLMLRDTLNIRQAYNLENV
UniProt Q9UPN9: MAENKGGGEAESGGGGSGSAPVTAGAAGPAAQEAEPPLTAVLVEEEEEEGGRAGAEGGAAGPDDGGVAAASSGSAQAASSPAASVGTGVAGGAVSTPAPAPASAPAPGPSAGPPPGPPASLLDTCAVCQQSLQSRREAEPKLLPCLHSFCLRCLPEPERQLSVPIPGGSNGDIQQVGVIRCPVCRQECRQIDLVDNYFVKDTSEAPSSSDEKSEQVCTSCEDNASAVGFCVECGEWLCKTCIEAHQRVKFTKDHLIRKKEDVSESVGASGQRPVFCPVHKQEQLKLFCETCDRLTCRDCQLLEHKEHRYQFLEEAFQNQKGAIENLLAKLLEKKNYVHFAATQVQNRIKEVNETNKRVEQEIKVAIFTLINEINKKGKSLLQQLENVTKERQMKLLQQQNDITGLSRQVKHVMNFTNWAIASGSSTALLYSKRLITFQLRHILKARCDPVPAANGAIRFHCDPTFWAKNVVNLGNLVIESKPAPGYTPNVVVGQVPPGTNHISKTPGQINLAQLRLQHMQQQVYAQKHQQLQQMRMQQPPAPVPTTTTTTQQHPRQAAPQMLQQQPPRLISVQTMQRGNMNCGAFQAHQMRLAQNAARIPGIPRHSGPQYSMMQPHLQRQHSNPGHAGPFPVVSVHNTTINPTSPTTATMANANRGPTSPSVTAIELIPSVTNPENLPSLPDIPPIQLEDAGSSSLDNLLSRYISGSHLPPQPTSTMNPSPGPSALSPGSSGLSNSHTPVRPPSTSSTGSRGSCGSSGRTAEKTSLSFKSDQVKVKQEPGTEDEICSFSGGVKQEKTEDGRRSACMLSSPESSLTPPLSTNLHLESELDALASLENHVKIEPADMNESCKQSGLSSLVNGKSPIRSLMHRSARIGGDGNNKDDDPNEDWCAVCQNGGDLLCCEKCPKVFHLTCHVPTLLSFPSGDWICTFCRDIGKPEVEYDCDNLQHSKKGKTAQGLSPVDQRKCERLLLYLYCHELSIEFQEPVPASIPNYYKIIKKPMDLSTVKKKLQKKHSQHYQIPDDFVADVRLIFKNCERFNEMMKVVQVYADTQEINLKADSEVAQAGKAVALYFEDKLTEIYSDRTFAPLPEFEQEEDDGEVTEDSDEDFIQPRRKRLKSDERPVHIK
UniProt Q9NPI1: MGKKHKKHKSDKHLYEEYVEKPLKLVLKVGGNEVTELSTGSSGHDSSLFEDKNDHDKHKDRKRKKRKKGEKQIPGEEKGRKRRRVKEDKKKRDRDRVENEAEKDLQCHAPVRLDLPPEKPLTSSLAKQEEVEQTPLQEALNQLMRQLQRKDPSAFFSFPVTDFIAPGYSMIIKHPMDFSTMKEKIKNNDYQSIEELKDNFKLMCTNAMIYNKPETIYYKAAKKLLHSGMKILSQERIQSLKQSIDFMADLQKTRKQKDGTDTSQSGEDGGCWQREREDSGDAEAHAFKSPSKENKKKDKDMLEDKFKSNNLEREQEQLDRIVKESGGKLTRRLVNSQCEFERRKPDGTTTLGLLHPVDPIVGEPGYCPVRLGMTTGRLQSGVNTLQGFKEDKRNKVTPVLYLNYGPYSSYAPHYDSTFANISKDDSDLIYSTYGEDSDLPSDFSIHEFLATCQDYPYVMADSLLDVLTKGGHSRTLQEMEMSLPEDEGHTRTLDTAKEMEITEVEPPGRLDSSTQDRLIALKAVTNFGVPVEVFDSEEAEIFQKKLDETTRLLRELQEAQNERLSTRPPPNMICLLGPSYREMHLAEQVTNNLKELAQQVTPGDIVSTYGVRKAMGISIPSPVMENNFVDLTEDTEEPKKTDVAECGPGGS
UniProt Q92785: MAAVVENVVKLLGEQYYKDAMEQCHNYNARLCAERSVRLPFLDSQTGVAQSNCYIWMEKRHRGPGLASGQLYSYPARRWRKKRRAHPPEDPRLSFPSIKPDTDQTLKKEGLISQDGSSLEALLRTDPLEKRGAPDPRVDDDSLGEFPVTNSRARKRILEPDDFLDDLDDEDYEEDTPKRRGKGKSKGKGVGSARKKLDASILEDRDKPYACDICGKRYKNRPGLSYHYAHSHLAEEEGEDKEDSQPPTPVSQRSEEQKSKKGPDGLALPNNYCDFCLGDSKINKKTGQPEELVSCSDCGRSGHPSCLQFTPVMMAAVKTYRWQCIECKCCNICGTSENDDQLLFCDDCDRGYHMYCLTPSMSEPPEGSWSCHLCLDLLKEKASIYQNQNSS
UniProt Q13263: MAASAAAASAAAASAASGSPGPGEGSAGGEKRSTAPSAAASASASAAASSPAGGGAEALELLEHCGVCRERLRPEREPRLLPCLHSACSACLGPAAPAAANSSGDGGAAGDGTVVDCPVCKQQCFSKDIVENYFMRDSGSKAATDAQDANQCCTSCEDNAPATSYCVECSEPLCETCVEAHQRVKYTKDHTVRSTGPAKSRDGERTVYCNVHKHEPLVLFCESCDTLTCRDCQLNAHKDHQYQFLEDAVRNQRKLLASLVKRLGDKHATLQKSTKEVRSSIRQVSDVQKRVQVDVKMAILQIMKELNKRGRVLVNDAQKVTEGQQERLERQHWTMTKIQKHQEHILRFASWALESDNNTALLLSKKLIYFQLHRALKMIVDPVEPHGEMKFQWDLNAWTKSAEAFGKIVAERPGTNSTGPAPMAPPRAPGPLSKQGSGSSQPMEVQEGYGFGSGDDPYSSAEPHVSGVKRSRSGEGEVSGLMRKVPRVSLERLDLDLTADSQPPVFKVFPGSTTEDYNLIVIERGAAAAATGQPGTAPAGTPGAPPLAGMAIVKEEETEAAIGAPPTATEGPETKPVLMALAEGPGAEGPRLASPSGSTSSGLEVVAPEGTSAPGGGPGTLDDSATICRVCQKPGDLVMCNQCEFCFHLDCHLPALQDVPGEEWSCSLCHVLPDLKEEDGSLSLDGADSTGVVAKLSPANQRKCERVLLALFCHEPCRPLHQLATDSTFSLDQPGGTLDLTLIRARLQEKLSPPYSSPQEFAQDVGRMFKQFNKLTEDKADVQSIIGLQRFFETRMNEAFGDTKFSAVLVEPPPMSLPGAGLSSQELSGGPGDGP

Target: HA-tagged KRAB-deleted ZNF436 fused to TurboID (ΔKRAB-TID) (human)
Experiment: proximity labelling

Row | binding | Molecule
1 | no binding | TRIM24 (protein, UniProt O15164 1-1050) MEVAVEKAVAAAAAASAAASGGPSAAPSGENEAESRQGPDSERGGEAARLNLLDTCAVCHQNIQSRAPKLLPCLHSFCQRCLPAPQRYLMLPAPMLGSAETPPPVPAPGSPVSGSSPFATQVGVIRCPVCSQECAERHIIDNFFVKDTTEVPSSTVEKSNQVCTSCEDNAEANGFCVECVEWLCKTCIRAHQRVKFTKDHTVRQKEEVSPEAVGVTSQRPVFCPFHKKEQLKLYCETCDKLTCRDCQLLEHKEHRYQFIEEAFQNQKVIIDTLITKLMEKTKYIKFTGNQIQNRIIEVNQNQKQVEQDIKVAIFTLMVEINKKGKALLHQLESLAKDHRMKLMQQQQEVAGLSKQLEHVMHFSKWAVSSGSSTALLYSKRLITYRLRHLLRARCDASPVTNNTIQFHCDPSFWAQNIINLGSLVIEDKESQPQMPKQNPVVEQNSQPPSGLSSNQLSKFPTQISLAQLRLQHMQQQVMAQRQQVQRRPAPVGLPNPRMQGPIQQPSISHQQPPPRLINFQNHSPKPNGPVLPPHPQQLRYPPNQNIPRQAIKPNPLQMAFLAQQAIKQWQISSGQGTPSTTNSTSSTPSSPTITSAAGYDGKAFGSPMIDLSSPVGGSYNLPSLPDIDCSSTIMLDNIVRKDTNIDHGQPRPPSNRTVQSPNSSVPSPGLAGPVTMTSVHPPIRSPSASSVGSRGSSGSSSKPAGADSTHKVPVVMLEPIRIKQENSGPPENYDFPVVIVKQESDEESRPQNANYPRSILTSLLLNSSQSSTSEETVLRSDAPDSTGDQPGLHQDNSSNGKSEWLDPSQKSPLHVGETRKEDDPNEDWCAVCQNGGELLCCEKCPKVFHLSCHVPTLTNFPSGEWICTFCRDLSKPEVEYDCDAPSHNSEKKKTEGLVKLTPIDKRKCERLLLFLYCHEMSLAFQDPVPLTVPDYYKIIKNPMDLSTIKKRLQEDYSMYSKPEDFVADFRLIFQNCAEFNEPDSEVANAGIKLENYFEELLKNLYPEKRFPKPEFRNESEDNKFSDDSDDDFVQPRKKRLKSIEERQLLK

Target: HA-tagged full-length ZNF436 fused to TurboID (ZNF436-TID) (human) (UniProt Q9C0F3)
Experiment: proximity labelling

Row | Molecule | binding
2 | PBRM1 (from UniProt Q86U86 1-1689) | binds
3 | TRIM33 (from UniProt Q9UPN9 1-1127) | binds
4 | TRIM24 (protein, UniProt O15164 1-1050) MEVAVEKAVAAAAAASAAASGGPSAAPSGENEAESRQGPDSERGGEAARLNLLDTCAVCHQNIQSRAPKLLPCLHSFCQRCLPAPQRYLMLPAPMLGSAETPPPVPAPGSPVSGSSPFATQVGVIRCPVCSQECAERHIIDNFFVKDTTEVPSSTVEKSNQVCTSCEDNAEANGFCVECVEWLCKTCIRAHQRVKFTKDHTVRQKEEVSPEAVGVTSQRPVFCPFHKKEQLKLYCETCDKLTCRDCQLLEHKEHRYQFIEEAFQNQKVIIDTLITKLMEKTKYIKFTGNQIQNRIIEVNQNQKQVEQDIKVAIFTLMVEINKKGKALLHQLESLAKDHRMKLMQQQQEVAGLSKQLEHVMHFSKWAVSSGSSTALLYSKRLITYRLRHLLRARCDASPVTNNTIQFHCDPSFWAQNIINLGSLVIEDKESQPQMPKQNPVVEQNSQPPSGLSSNQLSKFPTQISLAQLRLQHMQQQVMAQRQQVQRRPAPVGLPNPRMQGPIQQPSISHQQPPPRLINFQNHSPKPNGPVLPPHPQQLRYPPNQNIPRQAIKPNPLQMAFLAQQAIKQWQISSGQGTPSTTNSTSSTPSSPTITSAAGYDGKAFGSPMIDLSSPVGGSYNLPSLPDIDCSSTIMLDNIVRKDTNIDHGQPRPPSNRTVQSPNSSVPSPGLAGPVTMTSVHPPIRSPSASSVGSRGSSGSSSKPAGADSTHKVPVVMLEPIRIKQENSGPPENYDFPVVIVKQESDEESRPQNANYPRSILTSLLLNSSQSSTSEETVLRSDAPDSTGDQPGLHQDNSSNGKSEWLDPSQKSPLHVGETRKEDDPNEDWCAVCQNGGELLCCEKCPKVFHLSCHVPTLTNFPSGEWICTFCRDLSKPEVEYDCDAPSHNSEKKKTEGLVKLTPIDKRKCERLLLFLYCHEMSLAFQDPVPLTVPDYYKIIKNPMDLSTIKKRLQEDYSMYSKPEDFVADFRLIFQNCAEFNEPDSEVANAGIKLENYFEELLKNLYPEKRFPKPEFRNESEDNKFSDDSDDDFVQPRKKRLKSIEERQLLK | binds

Other lines, results leading:

Row | binding | Molecule
5 | binds | BRD7 (from UniProt Q9NPI1 1-651)
6 | binds | DPF2 (from UniProt Q92785 1-391)
7 | no binding | TRIM28 (endogenous in cardiomyocytes) (from UniProt Q13263 1-835)
